Data reported in the supplement of paper PMC4604168 (melanoma cell lines).
The other results are listed elsewhere or left out. Single values are uncertain, as repeats are few or missing.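 The apoptosis fraction was the count of cleaved-PARP antibody-stained nuclei relative to all DNA-stained nuclei, imaged in 1,536-well plates. Screening doses were set so most cells survived, and baseline and induced cleaved-PARP levels vary greatly across cell lines.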

Tested on: RVH-421
Assay: cleaved PARP positive nuclei fraction relative to DMSO control; melanoma cells; higher = more apoptosis
Settings: library dose: low library concentration; 72 h

Row | Compound | cleaved PARP positive nuclei fraction [%]
1 | O=C(Nc1ccccc1)c1cc([N+](=O)[O-])ccc1Cl + O=S(=O)(c1ccccc1)N(CC(F)(F)F)c1ccc(C(O)(C(F)(F)F)C(F)(F)F)cc1 [T0901317] (first compound 2 µM, partner dose 1.4 µM) | 85.2
2 | CN(C)S(=O)(=O)c1ccc2c(c1)/C(=C/c1cc3c([nH]1)CCCC3)C(=O)N2 + NCC(=O)Nc1ccc(-n2nc(C(F)(F)F)cc2-c2ccc3c(ccc4ccccc43)c2)cc1 [OSU03012] (first compound 0.4 µM, partner dose 1 µM) | 107
3 | N#Cc1c(O)c2c(-c3ccc(-c4ccccc4O)cc3)csc2[nH]c1=O + O=S(=O)(c1ccccc1)N(CC(F)(F)F)c1ccc(C(O)(C(F)(F)F)C(F)(F)F)cc1 [T0901317] (first compound 2 µM, partner dose 1.4 µM) | 125
4 | NCC(=O)Nc1ccc(-n2nc(C(F)(F)F)cc2-c2ccc3c(ccc4ccccc43)c2)cc1 + COc1cc2c(Oc3ccc4[nH]c(C)cc4c3F)ncnc2cc1OCCCN1CCCC1 [cediranib] (first compound 1 µM, partner dose 0.4 µM) | 39.8
5 | CN(NC(=O)CC(=O)NN(C)C(=S)c1ccccc1)C(=S)c1ccccc1 + c1cc(-c2cnn3cc(-c4ccc(OCCN5CCCCC5)cc4)cnc23)ccn1 [Dorsomorphin] (first compound 0.006 µM, partner dose 0.4 µM) | 83.9
6 | COc1cc2c(Oc3ccc4[nH]c(C)cc4c3F)ncnc2cc1OCCCN1CCCC1 [cediranib] + c1cc(-c2cnn3cc(-c4ccc(OCCN5CCCCC5)cc4)cnc23)ccn1 [Dorsomorphin] (first compound 0.4 µM, partner dose 0.4 µM) | 92.1
7 | CN(NC(=O)CC(=O)NN(C)C(=S)c1ccccc1)C(=S)c1ccccc1 + N#Cc1c(O)c2c(-c3ccc(-c4ccccc4O)cc3)csc2[nH]c1=O [A769662] (first compound 0.006 µM, partner dose 2 µM) | 47
8 | O=C(O)c1ccc(-c2c[nH]c3ncc(-c4ccccc4)cc23)cc1C1CCCC1 + CN(NC(=O)CC(=O)NN(C)C(=S)c1ccccc1)C(=S)c1ccccc1 [STA4783] (first compound 0.16 µM, partner dose 0.006 µM) | 217
9 | CN(C)S(=O)(=O)c1ccc2c(c1)/C(=C/c1cc3c([nH]1)CCCC3)C(=O)N2 + CC(C)CCN1c2nc(Nc3cc(F)c(O)c(F)c3)ncc2N(C)C(=O)C1C [BID1870] (first compound 0.4 µM, partner dose 0.2 µM) | 63.1
10 | CN(NC(=O)CC(=O)NN(C)C(=S)c1ccccc1)C(=S)c1ccccc1 + COc1cc2c(Oc3ccc4[nH]c(C)cc4c3F)ncnc2cc1OCCCN1CCCC1 [cediranib] (first compound 0.006 µM, partner dose 0.4 µM) | 82.7
11 | COC(=O)c1sccc1S(=O)(=O)Nc1ccc(Nc2ccccc2)cc1OC + COc1ccc(-c2ccc3c(N4CCOCC4)nc(N4C[C@@H](C)O[C@@H](C)C4)nc3n2)cc1CO [KU0063794] (first compound 1 µM, partner dose 0.02 µM) | 114
12 | COc1ccc2c(c1)CCC1C2CCC2(C)C(NCCCCCCN3C(=O)C=CC3=O)CCC12 (stereo not drawn) + COc1cc(N2CCC(N3CCN(C)CC3)CC2)ccc1Nc1ncc(Cl)c(Nc2ccccc2S(=O)(=O)C(C)C)n1 [NVP-TAE684] (first compound 0.4 µM, partner dose 0.08 µM) | 67.7
13 | O=C(O)C(=O)Nc1sc2c(c1C(=O)O)CCNC2 + COc1cc(N2CCC(N3CCN(C)CC3)CC2)ccc1Nc1ncc(Cl)c(Nc2ccccc2S(=O)(=O)C(C)C)n1 [NVP-TAE684] (first compound 1.66667 µM, partner dose 0.08 µM) | 113
14 | CCCCCCCCCCCC1=C(O)C(=O)C=C(O)C1=O [Embelin] + O=c1cc(-c2cccc3c2Sc2ccccc2S3)oc(N2CCOCC2)c1 [KU55933] (first compound 1.2 µM, partner dose 1 µM) | 261
15 | COc1cc2ncnc(Nc3ccc(Oc4ccccc4)cc3)c2cc1OC + CC(C)CCN1c2nc(Nc3cc(F)c(O)c(F)c3)ncc2N(C)C(=O)C1C [BID1870] (first compound 2 µM, partner dose 0.2 µM) | 21.8
16 | N#Cc1c(O)c2c(-c3ccc(-c4ccccc4O)cc3)csc2[nH]c1=O + COC(=O)c1sccc1S(=O)(=O)Nc1ccc(Nc2ccccc2)cc1OC [GSK0660] (first compound 2 µM, partner dose 1 µM) | 51.7
17 | NCC(=O)Nc1ccc(-n2nc(C(F)(F)F)cc2-c2ccc3c(ccc4ccccc43)c2)cc1 + CN(NC(=O)CC(=O)NN(C)C(=S)c1ccccc1)C(=S)c1ccccc1 [STA4783] (first compound 1 µM, partner dose 0.006 µM) | 69

As entered above:
cleaved PARP positive nuclei fraction [%], N#Cc1c(O)c2c(-c3ccc(-c4ccccc4O)cc3)csc2[nH]c1=O + O=S(=O)(c1ccccc1)N(CC(F)(F)F)c1ccc(C(O)(C(F)(F)F)C(F)(F)F)cc1 [T0901317] (first compound 2 µM, partner dose 1.4 µM) is entered as 125
cleaved PARP positive nuclei fraction [%], COc1cc2c(Oc3ccc4[nH]c(C)cc4c3F)ncnc2cc1OCCCN1CCCC1 [cediranib] + c1cc(-c2cnn3cc(-c4ccc(OCCN5CCCCC5)cc4)cnc23)ccn1 [Dorsomorphin] (first compound 0.4 µM, partner dose 0.4 µM) is entered as 92.1
cleaved PARP positive nuclei fraction [%], NCC(=O)Nc1ccc(-n2nc(C(F)(F)F)cc2-c2ccc3c(ccc4ccccc43)c2)cc1 + COc1cc2c(Oc3ccc4[nH]c(C)cc4c3F)ncnc2cc1OCCCN1CCCC1 [cediranib] (first compound 1 µM, partner dose 0.4 µM) is entered as 39.8

(cont.)

Row | Compound | cleaved PARP positive nuclei fraction [%]
18 | NCC(=O)Nc1ccc(-n2nc(C(F)(F)F)cc2-c2ccc3c(ccc4ccccc43)c2)cc1 + COc1cc(N2CCC(N3CCN(C)CC3)CC2)ccc1Nc1ncc(Cl)c(Nc2ccccc2S(=O)(=O)C(C)C)n1 [NVP-TAE684] (first compound 1 µM, partner dose 0.08 µM) | 117
19 | CCc1ccc(CCOc2ccc(CC3SC(=O)NC3=O)cc2)nc1 (stereo not drawn) [pioglitazone] + O=C(O)C(=O)Nc1sc2c(c1C(=O)O)CCNC2 [TCS401] (first compound 2 µM, partner dose 1.66667 µM) | 47.2
20 | CCN(CC)CCCCNc1ncc2cc(-c3cc(OC)cc(OC)c3)c(NC(=O)NC(C)(C)C)nc2n1 + Oc1cc(-c2nc(-c3ccccc3)[nH]c2-c2ccncc2)ccc1Cl [L779450] (first compound 0.1 µM, partner dose 0.2 µM) | 62.7
21 | O=C1NC(=O)/C(=C/c2ccc(-c3ccc(F)cc3O)o2)S1 + Cc1cc([N+](=O)[O-])ccc1NS(=O)(=O)c1cc(Cl)ccc1Cl [FH535] (first compound 1 µM, partner dose 1 µM) | 58.4
22 | c1cc(-c2cnn3cc(-c4ccc(OCCN5CCCCC5)cc4)cnc23)ccn1 [Dorsomorphin] + CCCCCCCCCCCC1=C(O)C(=O)C=C(O)C1=O [Embelin] (first compound 0.4 µM, partner dose 1.2 µM) | 101
23 | COC(=O)c1sccc1S(=O)(=O)Nc1ccc(Nc2ccccc2)cc1OC + O=C(O)C(=O)Nc1sc2c(c1C(=O)O)CCNC2 [TCS401] (first compound 1 µM, partner dose 1.66667 µM) | 47
24 | O=C(Nc1ccccc1)c1cc([N+](=O)[O-])ccc1Cl + COc1ccc(-c2ccc3c(N4CCOCC4)nc(N4C[C@@H](C)O[C@@H](C)C4)nc3n2)cc1CO [KU0063794] (first compound 2 µM, partner dose 0.02 µM) | 59.5
25 | O=C(O)c1ccc(-c2c[nH]c3ncc(-c4ccccc4)cc23)cc1C1CCCC1 + COc1cc2c(Oc3ccc4[nH]c(C)cc4c3F)ncnc2cc1OCCCN1CCCC1 [cediranib] (first compound 0.16 µM, partner dose 0.4 µM) | 161
26 | CN(C)S(=O)(=O)c1ccc2c(c1)/C(=C/c1cc3c([nH]1)CCCC3)C(=O)N2 + CN(NC(=O)CC(=O)NN(C)C(=S)c1ccccc1)C(=S)c1ccccc1 [STA4783] (first compound 0.4 µM, partner dose 0.006 µM) | 30.5
27 | O=C(O)c1ccc(-c2c[nH]c3ncc(-c4ccccc4)cc23)cc1C1CCCC1 + NCC(=O)Nc1ccc(-n2nc(C(F)(F)F)cc2-c2ccc3c(ccc4ccccc43)c2)cc1 [OSU03012] (first compound 0.16 µM, partner dose 1 µM) | 69.7
28 | CN(C)S(=O)(=O)c1ccc2c(c1)/C(=C/c1cc3c([nH]1)CCCC3)C(=O)N2 + COc1cc2c(Oc3ccc4[nH]c(C)cc4c3F)ncnc2cc1OCCCN1CCCC1 [cediranib] (first compound 0.4 µM, partner dose 0.4 µM) | 65.1
29 | COC(=O)c1sccc1S(=O)(=O)Nc1ccc(Nc2ccccc2)cc1OC + Oc1cc(-c2nc(-c3ccccc3)[nH]c2-c2ccncc2)ccc1Cl [L779450] (first compound 1 µM, partner dose 0.2 µM) | 73.6
30 | O=C1NC(=O)/C(=C/c2ccc(-c3ccc(F)cc3O)o2)S1 + CCCCCCCCCCCC1=C(O)C(=O)C=C(O)C1=O [Embelin] (first compound 1 µM, partner dose 1.2 µM) | 111
31 | COc1cc(N2CCC(N3CCN(C)CC3)CC2)ccc1Nc1ncc(Cl)c(Nc2ccccc2S(=O)(=O)C(C)C)n1 + CC(C)CCN1c2nc(Nc3cc(F)c(O)c(F)c3)ncc2N(C)C(=O)C1C [BID1870] (first compound 0.08 µM, partner dose 0.2 µM) | 59.3
32 | CN(C)S(=O)(=O)c1ccc2c(c1)/C(=C/c1cc3c([nH]1)CCCC3)C(=O)N2 + O=C(O)c1ccc(-c2c[nH]c3ncc(-c4ccccc4)cc23)cc1C1CCCC1 [GSK650394] (first compound 0.4 µM, partner dose 0.16 µM) | 96.9
33 | COc1cc2ncnc(Nc3ccc(Oc4ccccc4)cc3)c2cc1OC + O=C1NC(=O)/C(=C/c2ccc(-c3ccc(F)cc3O)o2)S1 [AS252424] (first compound 2 µM, partner dose 1 µM) | 60.8
